Values from PubChem BioAssay AID1159578 (Peter MacCallum Cancer Centre, 2015)
This is one part, drawn at random, of about 18,000 deposited reagents. About 1,030 of them (5.7%) were called active. 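Inactive calls also include pools with fewer than 3300 nuclei, whose migration was not assessed.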 Raw values vary from plate to plate and are shown uncorrected. Further read-outs or replicates are left out here.

- Purpose: 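Genome-wide hunt for genes controlling movement of lymphatic endothelial cells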 (primary screen)
- Cell system: human lymphatic endothelial cells
- Reagents: siRNA pool against human genes, 40 nM
- Timing: 48 h after transfection
- Detection: 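Cells stained with dye and imaged after a scratch; covered wound area and nuclei counted, duplicates averaged, migration set against mock wells and turned into a robust z-score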
- Scale: migration robust z-score: higher = faster migration into the scratch; nuclei per well: higher = more cells in the well
- Rule for the call: 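Migration changed when robust z exceeds 2 or falls below -2 and mean nuclei number is at least 3300; otherwise not called changed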
- Calls: active = migration changed; inactive = no migration change, or too few cells

| Target gene | migration robust z-score | nuclei per well, duplicate mean | activity call |
| --- | --- | --- | --- |
| GLUL | -0.08 | 5409 | inactive |
| P2RY14 | -0.72 | 7020 | inactive |
| RPS2 | -3.22 | 2195 | inactive |
| LACTB | 0.54 | 6366 | inactive |
| AMBP | -0.31 | 6015 | inactive |
| ARSB | -1.14 | 5918 | inactive |
| EXOC4 | 0.48 | 6680 | inactive |
| KLHL32 | -1.24 | 6112 | inactive |
| KLHL24 | 2.73 | 6938 | active |
| FBXO21 | 0.93 | 5417 | inactive |
| CSGALNACT2 | -0.67 | 6038 | inactive |
| LATS1 | 0.34 | 5036 | inactive |
| RASA2 | -0.31 | 6402 | inactive |
| EMB | 0.89 | 6118 | inactive |
| HNRNPL | -0.17 | 5412 | inactive |
| PSG5 | 1.05 | 6844 | inactive |
| ELFN2 | -0.62 | 4902 | inactive |
| EIF3F | -1.24 | 6852 | inactive |
| KCNJ5 | -0.08 | 5642 | inactive |
| KIF2A | -0.39 | 4920 | inactive |
| CDC50B | 1.64 | 5230 | inactive |
| GTF3C5 | -0.57 | 6396 | inactive |
| LINC02915 | -0.52 | 5350 | inactive |
| HAPLN2 | -1.12 | 5934 | inactive |
| COX5B | 0.68 | 5014 | inactive |
| HERPUD2 | -0.26 | 5638 | inactive |
| FARS2 | -0.13 | 3682 | inactive |
| ERG | 1.97 | 6943 | inactive |
| ADHFE1 | 0.73 | 5466 | inactive |
| PTCH1 | -0.2 | 4550 | inactive |
| USP8 | -0.5 | 6437 | inactive |
| PTPN22 | -0.44 | 5368 | inactive |
| CENATAC | 0.26 | 5207 | inactive |
| HBG2 | -2.18 | 3771 | active |
| ASB3 | -1.76 | 5109 | inactive |
| PLXNC1 | 0.92 | 4966 | inactive |
| SRP68 | 1.13 | 5790 | inactive |
| PFKFB2 | 0.7 | 6218 | inactive |
| ZFP41 | 0.2 | 5516 | inactive |
| CAPN5 | -2.08 | 5272 | active |
| CDRT4 | -0.08 | 5898 | inactive |
| ZNF662 | -0.2 | 6538 | inactive |
| LSG1 | -0.2 | 6141 | inactive |
| ALOX5AP | -0.96 | 7189 | inactive |
| TNFRSF17 | -0.89 | 4690 | inactive |
| ZNF780B | 0.16 | 6097 | inactive |
| TRRAP | 0.57 | 4576 | inactive |
| PANX3 | 0.04 | 5567 | inactive |
| C1orf105 | 0.19 | 5289 | inactive |
| LRRC1 | 0.06 | 6352 | inactive |
| CCDC30 | 0.09 | 5482 | inactive |
| HMGB1P1 | 1.97 | 5138 | inactive |
| SLC48A1 | -0.71 | 5542 | inactive |
| NLRP1 | 0.76 | 5946 | inactive |
| SGCA | -1.53 | 5550 | inactive |
| CSPG5 | 1.7 | 6018 | inactive |
| VPS8 | 0.78 | 5454 | inactive |

6 entries from above, reduced to “migration robust z-score”:
RASA2: -0.31
EMB: 0.89
HNRNPL: -0.17
PSG5: 1.05
ELFN2: -0.62
EIF3F: -1.24
